Assay results: paper PMC8917168
These are yes or no findings as the source states them, for the method shown. Binding seen in cells or lysates may run through a third protein. Some results given as binding are weak or reduced against the parent protein; the word gives no strength.

The chains behind the UniProt entries cited, without tags or fusion partners. Where a name states a change or a piece, a line headed by the entry shows the natural chain unless it says otherwise. Residues count along the entry.
UniProt Q3UP24: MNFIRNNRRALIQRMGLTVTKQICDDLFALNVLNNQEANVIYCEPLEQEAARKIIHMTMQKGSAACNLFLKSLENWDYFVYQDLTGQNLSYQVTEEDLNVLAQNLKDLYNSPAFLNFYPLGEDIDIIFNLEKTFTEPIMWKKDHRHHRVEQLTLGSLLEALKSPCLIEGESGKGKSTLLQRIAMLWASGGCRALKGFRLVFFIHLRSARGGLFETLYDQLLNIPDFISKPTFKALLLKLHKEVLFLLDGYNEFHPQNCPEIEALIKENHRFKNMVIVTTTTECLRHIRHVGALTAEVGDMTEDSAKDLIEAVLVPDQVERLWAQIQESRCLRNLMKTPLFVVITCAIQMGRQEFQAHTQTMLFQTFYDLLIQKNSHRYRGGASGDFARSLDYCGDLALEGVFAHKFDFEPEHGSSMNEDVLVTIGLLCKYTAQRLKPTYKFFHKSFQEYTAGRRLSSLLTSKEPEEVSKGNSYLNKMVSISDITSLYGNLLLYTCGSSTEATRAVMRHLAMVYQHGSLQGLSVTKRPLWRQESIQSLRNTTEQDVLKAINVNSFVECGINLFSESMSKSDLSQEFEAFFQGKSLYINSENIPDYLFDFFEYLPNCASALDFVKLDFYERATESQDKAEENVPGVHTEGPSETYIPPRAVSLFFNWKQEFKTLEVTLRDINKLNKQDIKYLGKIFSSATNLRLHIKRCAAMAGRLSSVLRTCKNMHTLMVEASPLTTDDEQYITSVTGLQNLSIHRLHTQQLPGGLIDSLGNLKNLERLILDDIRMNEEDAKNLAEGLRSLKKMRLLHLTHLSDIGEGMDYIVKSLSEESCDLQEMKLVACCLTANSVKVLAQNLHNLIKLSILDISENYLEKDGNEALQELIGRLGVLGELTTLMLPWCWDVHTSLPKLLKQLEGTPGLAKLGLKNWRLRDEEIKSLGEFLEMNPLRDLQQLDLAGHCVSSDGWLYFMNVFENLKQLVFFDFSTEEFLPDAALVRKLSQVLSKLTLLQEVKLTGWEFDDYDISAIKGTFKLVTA
UniProt P28867: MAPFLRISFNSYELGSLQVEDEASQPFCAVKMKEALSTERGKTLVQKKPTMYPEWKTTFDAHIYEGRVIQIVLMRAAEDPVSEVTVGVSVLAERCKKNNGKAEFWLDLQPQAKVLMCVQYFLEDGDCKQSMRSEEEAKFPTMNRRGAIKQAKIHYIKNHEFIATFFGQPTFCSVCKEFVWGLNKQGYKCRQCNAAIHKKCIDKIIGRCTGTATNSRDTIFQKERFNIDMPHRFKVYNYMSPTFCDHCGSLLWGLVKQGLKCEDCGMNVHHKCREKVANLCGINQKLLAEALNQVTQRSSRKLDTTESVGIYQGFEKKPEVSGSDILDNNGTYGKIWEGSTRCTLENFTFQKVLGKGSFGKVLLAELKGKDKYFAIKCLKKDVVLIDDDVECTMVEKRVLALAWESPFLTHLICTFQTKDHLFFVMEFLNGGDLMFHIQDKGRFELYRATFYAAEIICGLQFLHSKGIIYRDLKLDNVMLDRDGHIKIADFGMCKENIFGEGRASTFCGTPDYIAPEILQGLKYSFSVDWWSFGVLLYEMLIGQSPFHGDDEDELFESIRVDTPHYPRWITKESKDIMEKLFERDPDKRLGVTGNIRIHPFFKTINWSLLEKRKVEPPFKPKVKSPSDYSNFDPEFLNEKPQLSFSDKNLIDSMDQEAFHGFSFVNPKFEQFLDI
UniProt Q9I788: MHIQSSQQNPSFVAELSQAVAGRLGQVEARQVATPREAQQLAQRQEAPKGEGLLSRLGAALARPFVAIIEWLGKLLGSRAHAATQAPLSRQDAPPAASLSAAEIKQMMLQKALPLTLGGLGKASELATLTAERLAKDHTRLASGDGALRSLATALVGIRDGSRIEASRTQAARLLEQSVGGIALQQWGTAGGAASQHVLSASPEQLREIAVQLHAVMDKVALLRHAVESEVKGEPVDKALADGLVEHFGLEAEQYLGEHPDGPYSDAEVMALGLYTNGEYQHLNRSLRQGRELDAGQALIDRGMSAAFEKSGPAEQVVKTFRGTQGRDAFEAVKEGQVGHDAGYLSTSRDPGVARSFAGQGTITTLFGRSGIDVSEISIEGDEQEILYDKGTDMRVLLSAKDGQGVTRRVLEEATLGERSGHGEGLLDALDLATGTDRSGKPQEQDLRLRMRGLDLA
UniProt P00520: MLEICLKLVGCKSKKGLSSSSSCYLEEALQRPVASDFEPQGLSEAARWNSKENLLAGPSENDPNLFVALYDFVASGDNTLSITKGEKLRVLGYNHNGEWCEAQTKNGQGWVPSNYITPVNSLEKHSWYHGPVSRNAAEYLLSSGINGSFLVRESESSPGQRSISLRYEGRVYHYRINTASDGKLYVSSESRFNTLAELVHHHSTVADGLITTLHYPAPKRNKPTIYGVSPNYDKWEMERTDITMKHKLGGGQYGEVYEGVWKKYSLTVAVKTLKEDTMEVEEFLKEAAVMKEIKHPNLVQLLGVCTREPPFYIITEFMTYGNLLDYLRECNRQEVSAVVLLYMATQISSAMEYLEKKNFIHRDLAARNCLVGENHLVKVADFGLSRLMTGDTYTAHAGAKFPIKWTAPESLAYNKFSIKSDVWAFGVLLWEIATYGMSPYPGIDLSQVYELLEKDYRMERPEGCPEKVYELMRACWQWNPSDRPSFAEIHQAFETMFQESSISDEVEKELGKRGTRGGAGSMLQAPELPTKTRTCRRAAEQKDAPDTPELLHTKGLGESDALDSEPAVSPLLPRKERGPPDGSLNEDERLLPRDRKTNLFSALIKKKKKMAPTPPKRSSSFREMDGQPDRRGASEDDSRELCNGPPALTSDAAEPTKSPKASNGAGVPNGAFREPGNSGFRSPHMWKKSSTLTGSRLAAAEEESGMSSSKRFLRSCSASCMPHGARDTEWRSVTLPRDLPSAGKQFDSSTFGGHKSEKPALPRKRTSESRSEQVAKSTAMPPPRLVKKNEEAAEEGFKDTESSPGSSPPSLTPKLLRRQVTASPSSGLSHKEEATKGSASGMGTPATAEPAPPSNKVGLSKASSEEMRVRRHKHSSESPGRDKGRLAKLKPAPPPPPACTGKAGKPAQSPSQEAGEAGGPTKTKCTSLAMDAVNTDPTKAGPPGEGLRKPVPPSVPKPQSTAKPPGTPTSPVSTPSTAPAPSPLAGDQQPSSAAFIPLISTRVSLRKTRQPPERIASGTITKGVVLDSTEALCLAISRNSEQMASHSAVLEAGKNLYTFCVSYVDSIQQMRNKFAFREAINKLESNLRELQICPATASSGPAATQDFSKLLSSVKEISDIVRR
CrkI isoform of Crk adaptor protein (Q64010, residues 1-204): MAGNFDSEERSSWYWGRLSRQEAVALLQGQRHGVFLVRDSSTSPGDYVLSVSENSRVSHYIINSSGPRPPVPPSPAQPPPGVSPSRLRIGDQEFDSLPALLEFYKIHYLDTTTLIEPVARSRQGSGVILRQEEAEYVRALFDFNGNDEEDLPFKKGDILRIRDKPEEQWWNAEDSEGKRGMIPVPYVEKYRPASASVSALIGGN

Assays:
[1] = molecular target: NLRC4 (mouse (endogenous in BMDMs from C57BL/6)) (UniProt Q3UP24); assay: co-IP; endogenous proteins; BMDMs from C57BL/6 infected with P. aeruginosa at M.O.I. of 20 for 2 h; whole-cell lysates immunoprecipitated with antibodies against NLRC4, PKCδ or Abl and immunoblotted (Fig. 6a)
[2] = molecular target: PKCδ kinase (mouse (endogenous in BMDMs from C57BL/6)) (UniProt P28867); assay: as above
[3] = molecular target: PKCδ kinase (mouse (endogenous in BMDMs from C57BL/6)) (UniProt P28867); assay: co-IP; endogenous proteins; BMDMs from C57BL/6 infected with ExoT-deleted or ExoT-expressing P. aeruginosa strains for 2 h; whole-cell lysates and supernatants immunoprecipitated with antibodies against NLRC4, PKCδ, Crk or Abl and immunoblotted (Fig. 6l)
ExoT-GFP (P. aeruginosa) = ExoT-GFP (P. aeruginosa) (UniProt Q9I788); assay: co-IP; BMDMs pretreated with Z-VAD (60 µM), transfected with GFP fusions of ExoT for about 24 h, then treated with PBS (uninfected) or infected with the ∆U∆T strain for 2 h; whole-cell lysates immunoprecipitated with antibodies against GFP (bait) and immunoblotted
[4] = molecular target: Abl tyrosine kinase (mouse (endogenous in BMDMs from C57BL/6)) (UniProt P00520); assay: co-IP; as a1, but BMDMs without infection (Fig. 6a)
[5] = molecular target: Abl tyrosine kinase (mouse (endogenous in BMDMs from C57BL/6)) (UniProt P00520); assay: co-IP; endogenous proteins; BMDMs from C57BL/6 infected with P. aeruginosa at M.O.I. of 20 for 2 h; whole-cell lysates immunoprecipitated with antibodies against NLRC4, PKCδ or Abl and immunoblotted (Fig. 6a)
[6] = molecular target: Abl tyrosine kinase (mouse (endogenous in BMDMs from C57BL/6)) (UniProt P00520); assay: co-IP; endogenous proteins; BMDMs from C57BL/6 infected with ExoT-deleted or ExoT-expressing P. aeruginosa strains for 2 h; whole-cell lysates and supernatants immunoprecipitated with antibodies against NLRC4, PKCδ, Crk or Abl and immunoblotted (Fig. 6l)

## Abl tyrosine kinase (from UniProt P00520 1-1123) (enzyme)
[1]
  binding: no binding
[2]
  binding: binds
[3]
  binding: binds

## CrkI isoform of Crk adaptor protein (from UniProt Q64010-2 1-204)
[1]
  binding: no binding
[2]
  binding: no binding
ExoT-GFP (P. aeruginosa)
  binding: binds

## CrkII isoform of Crk adaptor protein (from UniProt Q64010-1 1-304)
[4]
  binding: no binding (condition: cells without infection)
[5]
  binding: binds
[1]
  binding: no binding
[2]
  binding: no binding
[6]
  binding: binds
ExoT-GFP (P. aeruginosa)
  binding: binds

## NLRC4 (from UniProt Q3UP24 1-1024)
[2]
  binding: binds
[3]
  binding: binds

## PKCδ kinase (from UniProt P28867 1-674) (enzyme)
[1]
  binding: binds
